# The list shows a part of the results. These are further read-outs of the screen, such as a control signal, another cell line or another target. No call is given for them. Most of these compounds were active or inconclusive in the main read-out, so they are no random draw. Potencies come from curve fits of mixed quality, noted in brackets.
# Experiment: qHTS Assay to Find Inhibitors of Chronic Active B-Cell Receptor Signaling
# Details: ABC-DLBCL IkBa-CBG/CBR reporter, luminescence ratio (green luciferase fused to IkBa over red control in TMD8 lymphoma cells), 4 h
# In short: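 Cell line TMD8 (human ABC DLBCL), stably expressing tet-inducible CBG68-IkBa fusion and CBR; IMDM/0.5% FBS; cpd up to 46 uM; dox induction, 4 h, 37C/5% CO2; dual luminescence; green/red ratio; MG132 control.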
# [1] = measured here: CBR red luminescence, cell number
# [2] = measured here: IkBa-CBG green luminescence
Structure (SMILES),AC50 [1],AC50 [2]
COc1cccc(/C=N/NC(=O)c2cnccn2)c1,"16.4 µM [falling, partial curve, poor fit]",–
CCOc1ccc(N(C)S(=O)(=O)c2ccc(C)c(C(=O)N3CCN(Cc4ccc5c(c4)OCO5)CC3)c2)cc1,"29.1 µM [falling, single point]",–
CCN(CC)CCCn1c(=S)[nH]c2cc(OC)c(OC)cc2c1=O,"29.1 µM [falling, single point]",–
CN1C(=O)c2oc3ccccc3c(=O)c2C1c1ccccn1 (stereo not drawn),"25.9 µM [falling, single point]",–
S=c1[nH]nc(-c2ccc(Br)o2)n1Cc1ccccc1,"29.1 µM [rising, single point]",–
Cc1ccccc1Nc1nc(N)nc(COC(=O)c2c(C)noc2C)n1,"25.9 µM [rising, single point]",–
CCCCN(CC)CCCNC(=O)c1cc2c(=O)n(CC)c3ccccc3c2s1,"1.41 µM [falling, single point]",–
CC1CN(c2ncnc3c2oc2ccccc23)CC(C)O1 (stereo not drawn),"6.31 µM [rising, full curve, poor fit]",–
CCOC(=O)C(=CNc1ccc(Oc2cccnc2)nc1)C(=O)OCC,"0.562 µM [falling, partial curve, poor fit]",–
O=C(CSc1nnc(-c2cccs2)o1)N1CCOCC1,"6.51 µM [rising, single point]",–
OCC1(Cc2ccccc2)CCCN(Cc2ccc3c(c2)OCCO3)C1 (stereo not drawn),"14.1 µM [falling, partial curve, poor fit]",–
O=C(CSc1nnc2ccccn12)Nc1ccccc1C(=O)O,"10 µM [falling, partial curve, poor fit]",–
O=C(/C=C/c1ccccc1Cl)NNC(=O)c1ccncc1,"20.6 µM [falling, single point]",–
CCSC1=N/C(=C\c2cccc(F)c2)C(=O)S1,"25.9 µM [rising, single point]",–
Fc1ccc(C2c3[nH]c4ccccc4c3CCN2Cc2ccoc2)cc1 (stereo not drawn),"35.5 µM [falling, single point]","20 µM [rising, partial curve, poor fit]"
Cc1cccc(CN2CCN(CC(C)C)C(CCO)C2)n1 (stereo not drawn),"12.6 µM [rising, single point]",–
CC(c1ccccc1)N1C(=O)c2ccc(C(=O)NCc3ccco3)cc2C1=O (stereo not drawn),"4.61 µM [rising, full curve]",–
Cc1ccnc(NC(=O)c2ccc3c(c2)OCO3)c1,"12.6 µM [falling, partial curve, poor fit]",–
CS(=O)(=O)Nc1cccc(-c2cnc3ccccc3n2)c1,"3.16 µM [rising, single point]",–
CCCCN1C(=O)C(O)(CC(=O)c2ccco2)c2cc(Br)ccc21 (stereo not drawn),–,"25.9 µM [falling, single point]"
COc1ccc(OC)c(S(=O)(=O)N2CCC(C(=O)NCc3ccccc3OC)CC2)c1,"29.1 µM [rising, single point]",–

# Some values from the entries so far:
# For AC50 [1], COc1cccc(/C=N/NC(=O)c2cnccn2)c1 reads 16.4 µM [falling, partial curve, poor fit]
# For AC50 [1], CC(c1ccccc1)N1C(=O)c2ccc(C(=O)NCc3ccco3)cc2C1=O (stereo not drawn) reads 4.61 µM [rising, full curve]

# The list continues.

Structure (SMILES),AC50 [1],AC50 [2]
O=C(Cn1cnc2cc([N+](=O)[O-])ccc2c1=O)NC1CCS(=O)(=O)C1 (stereo not drawn),"11.2 µM [falling, partial curve, poor fit]",–
Cc1cc(S(=O)(=O)N2CCN(c3ccccc3O)CC2)c(C)s1,"29.1 µM [falling, partial curve, poor fit]",–
CCCS(=O)(=O)N1CCCC(C(=O)NCCc2ccc(OC)c(OC)c2)C1 (stereo not drawn),"29.1 µM [rising, single point]",–
COc1ccc(C(=O)OCc2ccc(C)cc2)cc1S(=O)(=O)N1CCOCC1,–,"16.4 µM [falling, partial curve, poor fit]"
Cc1ccc(-n2ncc3c(N4CCCC4)ncnc32)c(C)c1,"1 µM [falling, full curve, poor fit]",–
COc1ccc([N+](=O)[O-])cc1NC(=O)CC(C)c1ccccc1 (stereo not drawn),"6.31 µM [rising, full curve]",–
Cc1cc(=O)n2[nH]c(C)c(-c3ccc(Cl)cc3)c2n1,"6.51 µM [falling, single point]","6.51 µM [rising, partial curve, poor fit]"
COc1cccc(/C=C2\SC(=S)N(CCC(=O)NNC(=O)c3ccccc3OC)C2=O)c1,"12.6 µM [falling, partial curve, poor fit]",–
O=S(=O)(N1CCCCC1)N1CCN(CC(O)COc2ccc3cc(Br)ccc3c2)CC1 (stereo not drawn),"29.1 µM [falling, single point]",–
COc1ccc(N(C(=O)c2ccccc2C)S(=O)(=O)c2cccs2)cc1,"8.2 µM [rising, partial curve]","7.31 µM [falling, partial curve]"
COc1ccccc1NC(C)C(=O)Nc1ccc(C(C)=O)cc1 (stereo not drawn),"23.1 µM [rising, single point]",–
Cc1ccc(C)c(S(=O)(=O)NCC(c2ccco2)N2CCc3ccccc3C2)c1 (stereo not drawn),"16.4 µM [falling, single point]",–
CC(=O)c1cccc(NC(=O)Nc2ccc3c(c2)CCC3)c1,"2.82 µM [rising, partial curve, poor fit]",–
CCOc1cc(CNCCCN2CCOCC2)cc(Br)c1OCc1ccccc1Cl,"35.5 µM [falling, single point]","3.98 µM [rising, full curve, poor fit]"
COc1cc(/C=N/Nc2nn3cnnc3c3ccccc23)ccc1O,"4.47 µM [falling, full curve, poor fit]",–
O=C1C=C(c2ccc(F)cc2OCc2ccccc2)C[C@@H](c2ccc(Cl)cc2)C1,"7.31 µM [rising, partial curve, poor fit]",–
CCOC(=O)C1CCN(C(=O)COc2ccc(Cl)cc2Cl)CC1,"35.5 µM [falling, single point]",–
CC(=O)Oc1ccc(OC(C)=O)c(SCCCCCN2CCOCC2)c1,"35.5 µM [falling, single point]",–
Cc1c(NC(=O)c2ncn[nH]2)cccc1-c1nc2ccccc2s1,"8.2 µM [falling, partial curve]",–
COc1cc2[nH]c(C(=O)NCc3ccccc3)cc2c(OC)c1OC,"0.891 µM [rising, full curve, poor fit]",–
CCC(N=c1cc(-c2ccc(OC)c(OC)c2)oc2ccc(C)cc12)C(=O)O (stereo not drawn),"10.3 µM [rising, partial curve]",–

Structure (SMILES),AC50 [1],AC50 [2]
Cc1nn(-c2ccccc2)c2c1C(c1ccccc1)C(C#N)=C(N)O2 (stereo not drawn),"5.17 µM [rising, single point]",–
COC(=O)c1ccc(NC(=O)c2ccccc2)o1,"11.2 µM [falling, single point]",–
COc1ccc(CN(C#N)c2nc(SC)nc(N(C)C)n2)cc1,"5.01 µM [rising, single point]",–
Cc1[nH]nc(-c2ccc(O)cc2O)c1-c1nc2ccccc2s1,"2.82 µM [rising, full curve, poor fit]",–
Cc1sc2ncnc(NCc3ccccc3)c2c1C,"7.08 µM [rising, full curve, poor fit]",–
Cc1cc(=O)[nH]c2ccc(S(=O)(=O)Nc3ccc(O)cc3)cc12,–,"10 µM [falling, partial curve]"
O=C(CCNS(=O)(=O)c1ccccc1)N1CCOCC1,"5.62 µM [falling, single point]",–
CCOC(=O)CN(C(=O)c1snc(C(N)=O)c1N)C(C(=O)NC1CCCCC1)c1ccc(F)cc1 (stereo not drawn),"7.08 µM [rising, partial curve, poor fit]",–
COc1ccc(S(=O)(=O)Nc2ccc(-n3cccc3)cc2)cc1,"35.5 µM [falling, single point]",–
O=C(O)CCCCC1SCC2NC(=O)NC21 (stereo not drawn),"35.5 µM [rising, single point]",–
CCN1C(=O)c2ccccc2S(=O)c2ccc(C(=O)N3CCCCCC3)cc21 (stereo not drawn),"20.6 µM [falling, partial curve, poor fit]",–
CC(=O)Nc1ccc(S(=O)(=O)NCCC(=O)OCc2csc(CC(=O)Nc3ccccc3C)n2)cc1,"1.16 µM [rising, partial curve]",–
CCn1cc(CNC(=O)C2C3CCC(C3)C2C(=O)O)cn1 (stereo not drawn),"3.98 µM [falling, partial curve, poor fit]",–
Cc1cc(NC(=O)C(C)SCC(=O)N(C)CC(=O)Nc2ccc(Br)cc2C)no1 (stereo not drawn),"35.5 µM [falling, single point]",–
CCOC(=O)C1C(c2cc(OC)c(OC)c(OC)c2)NC(=S)NC1(O)C(F)(F)F (stereo not drawn),"5.62 µM [rising, single point]",–
COc1cc(/C(C)=N\NC(N)=S)cc(OC)c1OC,"20.6 µM [rising, partial curve, poor fit]","25.9 µM [falling, partial curve, poor fit]"
COc1ccc(Nc2nc(C)cc(C)c2C(N)=O)cc1,"16.4 µM [rising, partial curve, poor fit]",–
CC(=O)N1CCN(c2ccc(NC(=O)c3ccc(Cl)c([N+](=O)[O-])c3)cc2)CC1,"3.16 µM [rising, partial curve, poor fit]",–
Cc1cc(C(=O)Nc2ccc(Br)cn2)sc1C,"16.4 µM [falling, single point]",–
Nc1cccc2cc(-c3ccccc3)oc12,"13 µM [rising, partial curve, poor fit]",–
O=C(NNC(=S)NC(=O)c1cccs1)c1ccc(O)cc1,"1.12 µM [falling, partial curve, poor fit]",–

# Source: PubChem BioAssay AID493014 (National Center for Advancing Translational Sciences (NCATS), 2011)
